Record: PubChem BioAssay AID504764 (Drosophila RNAi Screening Center, 2011)
The deposit covers about 22,000 reagents; shown is an unselected part of those with a known target gene and a result. In the full data, 403 (1.9%) are marked active. 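Unnormalised raw counts per well; ratio z-scores behind the hit calls and whether each hit raises or lowers signal are not deposited.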 No sequences are given here. Not stated in the record: the amount of reagent.

Screen: 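Genes whose knock-down alters Notch-dependent transcription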 (primary screen)
Cell system: Drosophila Kc167 cells
Knock-down reagent: long dsRNA against Drosophila genes
Duration: about 5 days (4 days dsRNA, then 24 h after transfection)
Challenge: transfection of constitutively active membrane-tethered Notch lacking the extracellular domain, read 24 h later
Detection: 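Firefly luciferase from an E(spl)m3 reporter with active Notch, plus control-promoter and uninduced reporter wells for normalisation; unnormalised counts, duplicate wells a and b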
Direction: induced reporter light, run 1, well a and induced reporter light, run 1, well b: higher = more light from the Notch target reporter with active Notch; control promoter light, run 1, well a and control promoter light, run 1, well b: higher = more light from the viral control promoter (cell number, transfection, viability); uninduced reporter light, run 1, well a: higher = more light from the Notch target reporter without active Notch
Active means: 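Hit if the duplicate-averaged log2 ratio of induced to control-promoter light gives a plate-wise z beyond ±2, or induced to uninduced beyond ±1.8; weak-control or discordant-duplicate wells dropped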
Calls: active = modifier hit (raised or lowered Notch signal); inactive = not a hit

gish [DRSC16154]: induced reporter light, run 1, well a = 2.00e5; induced reporter light, run 1, well b = 2.27e5; control promoter light, run 1, well a = 3.02e5; control promoter light, run 1, well b = 3.12e5; uninduced reporter light, run 1, well a = 15730; outcome = inactive
CG4619 [DRSC02764]: induced reporter light, run 1, well a = 2.29e5; induced reporter light, run 1, well b = 2.15e5; control promoter light, run 1, well a = 2.20e5; control promoter light, run 1, well b = 2.12e5; uninduced reporter light, run 1, well a = 17835; outcome = inactive
Cpr67Fa1 [DRSC10932]: induced reporter light, run 1, well a = 1.45e5; induced reporter light, run 1, well b = 1.34e5; control promoter light, run 1, well a = 2.04e5; control promoter light, run 1, well b = 1.65e5; uninduced reporter light, run 1, well a = 5105; outcome = inactive
CG13457 [DRSC10004]: induced reporter light, run 1, well a = 1.94e5; induced reporter light, run 1, well b = 1.35e5; control promoter light, run 1, well a = 2.07e5; control promoter light, run 1, well b = 1.59e5; uninduced reporter light, run 1, well a = 10018; outcome = inactive
CG17141 [DRSC15178]: induced reporter light, run 1, well a = 1.93e5; induced reporter light, run 1, well b = 1.87e5; control promoter light, run 1, well a = 1.97e5; control promoter light, run 1, well b = 1.77e5; uninduced reporter light, run 1, well a = 12588; outcome = inactive
alpha-Man-IIa [DRSC15393]: induced reporter light, run 1, well a = 41245; induced reporter light, run 1, well b = 46755; control promoter light, run 1, well a = 43395; control promoter light, run 1, well b = 40180; uninduced reporter light, run 1, well a = 2770; outcome = inactive
Nup93-2 [DRSC16221]: induced reporter light, run 1, well a = 1.04e5; induced reporter light, run 1, well b = 1.00e5; control promoter light, run 1, well a = 1.15e5; control promoter light, run 1, well b = 93980; uninduced reporter light, run 1, well a = 9650; outcome = inactive
Pal2 [DRSC04507]: induced reporter light, run 1, well a = 1.82e5; induced reporter light, run 1, well b = 1.43e5; control promoter light, run 1, well a = 1.65e5; control promoter light, run 1, well b = 1.80e5; uninduced reporter light, run 1, well a = 12205; outcome = inactive
CG8860 [DRSC07291]: induced reporter light, run 1, well a = 87465; induced reporter light, run 1, well b = 95870; control promoter light, run 1, well a = 96875; control promoter light, run 1, well b = 92545; uninduced reporter light, run 1, well a = 9705; outcome = inactive
retinin [DRSC09940]: induced reporter light, run 1, well a = 1.72e5; induced reporter light, run 1, well b = 1.54e5; control promoter light, run 1, well a = 1.66e5; control promoter light, run 1, well b = 1.66e5; uninduced reporter light, run 1, well a = 8740; outcome = inactive
CG9689 [DRSC18440]: induced reporter light, run 1, well a = 1.89e5; induced reporter light, run 1, well b = 2.07e5; control promoter light, run 1, well a = 2.21e5; control promoter light, run 1, well b = 2.12e5; uninduced reporter light, run 1, well a = 13500; outcome = inactive

Next part; the last 2 above are carried over.
retinin [DRSC09940]: induced reporter light, run 1, well a = 1.72e5; induced reporter light, run 1, well b = 1.54e5; control promoter light, run 1, well a = 1.66e5; control promoter light, run 1, well b = 1.66e5; uninduced reporter light, run 1, well a = 8740; outcome = inactive
CG9689 [DRSC18440]: induced reporter light, run 1, well a = 1.89e5; induced reporter light, run 1, well b = 2.07e5; control promoter light, run 1, well a = 2.21e5; control promoter light, run 1, well b = 2.12e5; uninduced reporter light, run 1, well a = 13500; outcome = inactive
Mettl14 [DRSC03073]: induced reporter light, run 1, well a = 1.63e5; induced reporter light, run 1, well b = 1.69e5; control promoter light, run 1, well a = 2.06e5; control promoter light, run 1, well b = 1.99e5; uninduced reporter light, run 1, well a = 12995; outcome = inactive
ara [DRSC11322]: induced reporter light, run 1, well a = 11605; induced reporter light, run 1, well b = 15192; control promoter light, run 1, well a = 19680; control promoter light, run 1, well b = 19730; uninduced reporter light, run 1, well a = 1455; outcome = inactive
mthl11 [DRSC12779]: induced reporter light, run 1, well a = 1.53e5; induced reporter light, run 1, well b = 1.71e5; control promoter light, run 1, well a = 1.37e5; control promoter light, run 1, well b = 1.57e5; uninduced reporter light, run 1, well a = 10570; outcome = inactive
orb [DRSC17021]: induced reporter light, run 1, well a = 3455; induced reporter light, run 1, well b = 3438; control promoter light, run 1, well a = 3435; control promoter light, run 1, well b = 3590; uninduced reporter light, run 1, well a = 485; outcome = inactive
cN-IIIB [DRSC04359]: induced reporter light, run 1, well a = 2.09e5; induced reporter light, run 1, well b = 1.75e5; control promoter light, run 1, well a = 1.87e5; control promoter light, run 1, well b = 1.69e5; uninduced reporter light, run 1, well a = 14255; outcome = inactive
CG6420 [DRSC16035]: induced reporter light, run 1, well a = 11350; induced reporter light, run 1, well b = 9160; control promoter light, run 1, well a = 13890; control promoter light, run 1, well b = 10600; uninduced reporter light, run 1, well a = 710; outcome = inactive
Dlg5 [DRSC02964]: induced reporter light, run 1, well a = 94560; induced reporter light, run 1, well b = 1.06e5; control promoter light, run 1, well a = 90020; control promoter light, run 1, well b = 1.06e5; uninduced reporter light, run 1, well a = 10638; outcome = inactive
CG34025 [DRSC08014]: induced reporter light, run 1, well a = 2.44e5; induced reporter light, run 1, well b = 2.50e5; control promoter light, run 1, well a = 2.17e5; control promoter light, run 1, well b = 2.00e5; uninduced reporter light, run 1, well a = 20260; outcome = inactive
Listericin [DRSC07334]: induced reporter light, run 1, well a = 1.62e5; induced reporter light, run 1, well b = 1.81e5; control promoter light, run 1, well a = 2.43e5; control promoter light, run 1, well b = 2.91e5; uninduced reporter light, run 1, well a = 16205; outcome = inactive
CG43795 [DRSC04192]: induced reporter light, run 1, well a = 2.13e5; induced reporter light, run 1, well b = 1.69e5; control promoter light, run 1, well a = 1.86e5; control promoter light, run 1, well b = 2.02e5; uninduced reporter light, run 1, well a = 13605; outcome = inactive
CG43795 [DRSC04193]: induced reporter light, run 1, well a = 2.21e5; induced reporter light, run 1, well b = 2.51e5; control promoter light, run 1, well a = 2.11e5; control promoter light, run 1, well b = 2.32e5; uninduced reporter light, run 1, well a = 16905; outcome = inactive
CG43795 [DRSC04194]: induced reporter light, run 1, well a = 1.49e5; induced reporter light, run 1, well b = 1.41e5; control promoter light, run 1, well a = 1.63e5; control promoter light, run 1, well b = 1.47e5; uninduced reporter light, run 1, well a = 9375; outcome = inactive
CG43795 [DRSC04309]: induced reporter light, run 1, well a = 1.24e5; induced reporter light, run 1, well b = 99480; control promoter light, run 1, well a = 1.39e5; control promoter light, run 1, well b = 1.32e5; uninduced reporter light, run 1, well a = 9825; outcome = inactive
CG43795 [DRSC04310]: induced reporter light, run 1, well a = 1.37e5; induced reporter light, run 1, well b = 1.35e5; control promoter light, run 1, well a = 1.28e5; control promoter light, run 1, well b = 1.35e5; uninduced reporter light, run 1, well a = 9180; outcome = inactive
CG43795 [DRSC22826]: outcome = inactive
